Publication PMC7343964
Where two headings read alike, the source gives them in different places. No constants are given. Whether binding was seen depends on the method and setting. Binding seen in cells or lysates may run through a third protein. Some results given as binding are weak or reduced against the parent protein; the word gives no strength. Sequences can lack the tags named with a protein.

Amino acid sequences for entries named in this document (tags omitted).
UniProt Q9FRL8: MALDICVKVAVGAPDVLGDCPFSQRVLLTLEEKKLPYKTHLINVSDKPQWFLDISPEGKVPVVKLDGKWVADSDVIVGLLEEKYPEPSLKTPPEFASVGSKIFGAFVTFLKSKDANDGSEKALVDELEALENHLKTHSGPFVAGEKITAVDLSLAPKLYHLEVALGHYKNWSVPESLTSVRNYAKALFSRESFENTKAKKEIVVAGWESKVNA

T1: YAP1C probe (Yap1 C-terminal cysteine-rich domain construct fused to a tandem affinity purification tag) (Saccharomyces cerevisiae) (UniProt P19880)
T1 sequence: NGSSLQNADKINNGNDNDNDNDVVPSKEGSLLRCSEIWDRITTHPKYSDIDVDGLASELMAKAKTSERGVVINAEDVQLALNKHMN


Legend:
[1] = molecular target: T1, YAP1C probe (Yap1 C-terminal cysteine-rich domain construct fused to a tandem affinity purification tag) (Saccharomyces cerevisiae); assay: cross-linking; mixed disulfide formed in the cells between Cys598 of YAP1C and a sulfenylated cysteine (cells untreated or 20 mM H2O2 for 30 min); IgG-Sepharose enrichment, on-bead tryptic digestion, then enrichment of C598SEIWDR disulfide-linked peptides on anti-C598SEIWDR antibody beads; LC-MS/MS, pLink 2, FDR ≤ 1%
[2] = molecular target: T1, YAP1C probe (Yap1 C-terminal cysteine-rich domain construct fused to a tandem affinity purification tag) (Saccharomyces cerevisiae); assay: as above; remark: listed apart in the source

Row | binding [1] | binding [2] | Molecule
1 | binds |  | DEHYDROASCORBATE REDUCTASE 2 (from UniProt Q9FRL8 1-213) (enzyme)
2 |  | no binding | YAP1C probe (Yap1 C-terminal cysteine-rich domain construct fused to a tandem affinity purification tag) (domain or fragment, UniProt P19880 565-650) NGSSLQNADKINNGNDNDNDNDVVPSKEGSLLRCSEIWDRITTHPKYSDIDVDGLASELMAKAKTSERGVVINAEDVQLALNKHMN
3 |  | binds | ascorbate peroxidase 1 (enzyme, UniProt Q05431 1-250, sulfenylated Cys32 and Cys49, trapped as mixed disulfide with Cys598 of YAP1C) MTKNYPTVSEDYKKAVEKCRRKLRGLIAEKNCAPIMVRLAWHSAGTFDCQSRTGGPFGTMRFDAEQAHGANSGIHIALRLLDPIREQFPTISFADFHQLAGVVAVEVTGGPDIPFHPGREDKPQPPPEGRLPDATKGCDHLRDVFAKQMGLSDKDIVALSGAHTLGRCHKDRSGFEGAWTSNPLIFDNSYFKELLSGEKEGLLQLVSDKALLDDPVFRPLVEKYAADEDAFFADYAEAHMKLSELGFADA
